No constants are given. Whether binding was seen depends on the method and setting.
Target: inactive MLCK, aldehyde-fixed (UniProt Q15746)
Test: binding of PIK probe to aldehyde-fixed MLCK, streptavidin fluorescence

Chains of the proteins cited; added tags and fusions are not shown. Lines headed by an entry give the natural chain unless they say otherwise; changes in a name come on top.
UniProt Q15746: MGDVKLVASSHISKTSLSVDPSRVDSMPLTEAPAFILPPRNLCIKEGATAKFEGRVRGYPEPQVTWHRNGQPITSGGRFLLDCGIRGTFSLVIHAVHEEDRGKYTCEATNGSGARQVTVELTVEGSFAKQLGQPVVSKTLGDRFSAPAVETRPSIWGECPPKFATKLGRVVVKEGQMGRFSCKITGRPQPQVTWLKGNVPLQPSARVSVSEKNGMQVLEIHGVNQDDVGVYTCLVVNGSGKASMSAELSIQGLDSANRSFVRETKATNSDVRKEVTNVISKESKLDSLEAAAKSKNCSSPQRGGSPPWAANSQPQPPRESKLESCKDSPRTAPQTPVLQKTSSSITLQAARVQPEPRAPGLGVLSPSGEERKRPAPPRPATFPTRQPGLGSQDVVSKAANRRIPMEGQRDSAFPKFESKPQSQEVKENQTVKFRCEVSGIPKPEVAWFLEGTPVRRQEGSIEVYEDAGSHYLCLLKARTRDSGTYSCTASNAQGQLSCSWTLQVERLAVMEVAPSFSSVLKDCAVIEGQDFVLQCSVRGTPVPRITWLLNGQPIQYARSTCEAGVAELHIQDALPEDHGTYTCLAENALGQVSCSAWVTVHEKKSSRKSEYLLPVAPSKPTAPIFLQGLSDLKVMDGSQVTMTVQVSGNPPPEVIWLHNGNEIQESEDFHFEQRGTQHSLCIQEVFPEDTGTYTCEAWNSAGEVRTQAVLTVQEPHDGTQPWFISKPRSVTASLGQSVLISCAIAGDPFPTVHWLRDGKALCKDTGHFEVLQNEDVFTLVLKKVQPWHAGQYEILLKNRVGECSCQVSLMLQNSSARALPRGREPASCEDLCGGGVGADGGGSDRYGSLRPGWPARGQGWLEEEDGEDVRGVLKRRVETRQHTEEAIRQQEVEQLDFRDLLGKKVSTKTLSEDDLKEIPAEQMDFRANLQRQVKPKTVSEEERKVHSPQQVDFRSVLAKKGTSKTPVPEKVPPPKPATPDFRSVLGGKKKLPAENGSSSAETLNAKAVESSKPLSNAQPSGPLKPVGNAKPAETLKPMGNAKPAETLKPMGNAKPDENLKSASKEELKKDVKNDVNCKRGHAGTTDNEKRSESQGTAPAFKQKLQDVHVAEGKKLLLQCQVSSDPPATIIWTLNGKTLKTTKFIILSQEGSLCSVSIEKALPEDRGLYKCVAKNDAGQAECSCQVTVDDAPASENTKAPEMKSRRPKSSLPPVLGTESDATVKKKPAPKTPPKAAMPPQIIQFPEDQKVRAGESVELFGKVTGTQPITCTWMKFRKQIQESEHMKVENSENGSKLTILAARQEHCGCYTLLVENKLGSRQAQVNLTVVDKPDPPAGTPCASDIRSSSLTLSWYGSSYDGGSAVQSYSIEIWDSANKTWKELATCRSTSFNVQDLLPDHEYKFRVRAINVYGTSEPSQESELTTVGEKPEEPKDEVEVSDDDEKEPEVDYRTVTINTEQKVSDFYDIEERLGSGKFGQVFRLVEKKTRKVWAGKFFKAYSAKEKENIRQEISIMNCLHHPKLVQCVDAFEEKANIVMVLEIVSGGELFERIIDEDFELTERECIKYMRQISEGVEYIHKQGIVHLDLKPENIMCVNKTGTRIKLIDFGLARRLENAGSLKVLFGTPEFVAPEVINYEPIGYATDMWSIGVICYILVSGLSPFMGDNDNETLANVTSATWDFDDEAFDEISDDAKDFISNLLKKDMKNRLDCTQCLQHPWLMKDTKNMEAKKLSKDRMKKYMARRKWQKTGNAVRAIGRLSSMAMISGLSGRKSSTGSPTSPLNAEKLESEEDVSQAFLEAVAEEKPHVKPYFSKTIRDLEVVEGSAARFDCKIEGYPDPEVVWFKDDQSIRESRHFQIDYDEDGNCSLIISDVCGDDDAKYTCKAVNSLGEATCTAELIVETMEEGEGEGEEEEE

RKKYKYRRK [PIK (SEQ ID NO: 12)]
binding: no binding
